Reference: PMC4824347
These are yes or no findings as the source states them, for the method shown. In cells and extracts the contact can be indirect. Some binding calls cover weakened binding; strength is not graded here. Sequences can lack the tags named with a protein.

Molecular target: T1, Strep-tag-Chs2-215-629 (budding yeast) (UniProt P14180)
T1 sequence: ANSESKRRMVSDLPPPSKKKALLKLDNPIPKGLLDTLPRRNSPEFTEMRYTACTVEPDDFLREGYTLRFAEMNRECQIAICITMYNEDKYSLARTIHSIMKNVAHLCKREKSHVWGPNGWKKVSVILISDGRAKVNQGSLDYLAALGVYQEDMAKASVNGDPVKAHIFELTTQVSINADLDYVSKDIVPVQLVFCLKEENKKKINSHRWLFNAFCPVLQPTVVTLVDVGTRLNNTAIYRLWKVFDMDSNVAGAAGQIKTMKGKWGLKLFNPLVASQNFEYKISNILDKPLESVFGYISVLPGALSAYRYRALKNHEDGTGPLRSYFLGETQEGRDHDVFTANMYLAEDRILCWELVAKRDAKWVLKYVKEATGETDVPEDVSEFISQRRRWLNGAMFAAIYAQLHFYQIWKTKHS
Test: pull-down; pairs of IPTG-induced E. coli cultures expressing the two tagged proteins were mixed and putative complexes purified following the scheme in S1A; final purified fractions analysed by SDS-PAGE and immunoblotting with anti-Streptag or anti-His antibodies

- binding: binds
B1: 6His-tagged-Inn1-C2 (domain or fragment, UniProt P53901 1-114)
chain: MSEEVWNGNQGILSVYVSKARDLPNLNKLDKQNVMLRLRIAHMTRASNTLHRAGQNPVFHYLEKFDITPEIKPLMYVEVYCDRRKKSPLPIGRCEIDLLNAIRADPKEGYCTWY
